Reference: publication PMC9090832
These are yes or no findings as the source states them, for the method shown. For part of these data: Binding seen in cells or lysates may run through a third protein. Some binding calls cover weakened binding; strength is not graded here. For part of these data: Sequences can lack the tags named with a protein.

Tests used:
FLAG-tagged Olig2 = biological target: T1, FLAG-tagged Olig2 (UniProt Q9EQW6); assay: co-IP; FLAG-tagged Olig2 co-IP in transfected HEK293 cells; immunoprecipitates analysed with anti-HA and anti-FLAG antibodies
T1 sequence: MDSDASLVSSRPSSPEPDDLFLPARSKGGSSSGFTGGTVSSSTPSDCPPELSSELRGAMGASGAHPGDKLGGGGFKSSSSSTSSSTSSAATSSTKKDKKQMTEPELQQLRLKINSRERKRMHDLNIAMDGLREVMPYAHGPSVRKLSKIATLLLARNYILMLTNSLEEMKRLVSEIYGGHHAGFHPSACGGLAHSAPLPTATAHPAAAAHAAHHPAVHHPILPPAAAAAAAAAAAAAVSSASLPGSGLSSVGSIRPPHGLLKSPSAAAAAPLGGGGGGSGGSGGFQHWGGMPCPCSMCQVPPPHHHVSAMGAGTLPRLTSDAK

[1] = biological target: T2, Oligodendrocyte transcription factor 2 (Olig2), full-length, yeast two-hybrid bait (UniProt Q9EQW6); assay: two-hybrid; yeast two-hybrid screening; full-length Olig2 as bait; mouse embryonic brain cDNA library fused with the LexA activation domain
T2 sequence: T1 sequence

Molecule: HA-tagged Ddx20 (from UniProt Q9JJY4 1-825)
- binding (FLAG-tagged Olig2): binds

Molecule: HA-tagged Ddx20ΔC, a truncated form of Ddx20 lacking the C-terminal region (730-825 aa) (from UniProt Q9JJY4 1-729) (domain or fragment)
- binding (FLAG-tagged Olig2): no binding

B1: Ddx20 C-terminal region (748-825 aa), yeast two-hybrid prey (domain or fragment, UniProt Q9JJY4 748-825)
chain: QSEPQEESWYDCHRETTASFSDTYQDYEEYWRAYYRAWQEYYAAASHSYYWNAQRHPSWMAAYHMNTVYLQEMMRGNQ
- binding [1]: binds
